Results are given in words; binding and its absence hold for the method and conditions named. Binding seen in cells or lysates may run through a third protein. Some binding calls cover weakened binding; strength is not graded here. For some of these results: Where a sequence is shown, tags or fusion partners need not be part of it.

Protein sequences, listed by entry. Tags and fused reporters are not part of them. Lines headed by an entry give the natural chain unless they say otherwise; changes in a name come on top. Residues count along the entry.
UniProt P61769: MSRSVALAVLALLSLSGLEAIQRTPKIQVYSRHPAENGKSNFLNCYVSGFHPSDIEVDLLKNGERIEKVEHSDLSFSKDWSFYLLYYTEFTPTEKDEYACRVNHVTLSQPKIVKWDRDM
UniProt O43586: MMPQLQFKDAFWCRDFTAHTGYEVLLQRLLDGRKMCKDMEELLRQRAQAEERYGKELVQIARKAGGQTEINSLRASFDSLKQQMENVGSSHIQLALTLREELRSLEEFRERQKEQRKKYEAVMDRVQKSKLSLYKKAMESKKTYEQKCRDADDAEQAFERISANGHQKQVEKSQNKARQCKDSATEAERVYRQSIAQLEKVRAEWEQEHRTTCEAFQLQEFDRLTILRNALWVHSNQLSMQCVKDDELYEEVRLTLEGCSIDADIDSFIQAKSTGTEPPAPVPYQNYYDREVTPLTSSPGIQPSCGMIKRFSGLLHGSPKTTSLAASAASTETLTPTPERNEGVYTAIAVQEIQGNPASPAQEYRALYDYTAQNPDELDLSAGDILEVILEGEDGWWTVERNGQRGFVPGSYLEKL
UniProt P29466, residues 120-297: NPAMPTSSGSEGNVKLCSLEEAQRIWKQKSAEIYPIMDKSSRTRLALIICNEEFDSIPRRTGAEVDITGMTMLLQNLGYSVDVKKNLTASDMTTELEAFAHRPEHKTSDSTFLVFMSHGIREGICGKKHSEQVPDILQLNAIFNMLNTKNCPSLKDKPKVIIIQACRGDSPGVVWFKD

Experiment [1] addresses T1, FLAG-tagged full-length pyrin (human) (UniProt O15553).
T1 sequence: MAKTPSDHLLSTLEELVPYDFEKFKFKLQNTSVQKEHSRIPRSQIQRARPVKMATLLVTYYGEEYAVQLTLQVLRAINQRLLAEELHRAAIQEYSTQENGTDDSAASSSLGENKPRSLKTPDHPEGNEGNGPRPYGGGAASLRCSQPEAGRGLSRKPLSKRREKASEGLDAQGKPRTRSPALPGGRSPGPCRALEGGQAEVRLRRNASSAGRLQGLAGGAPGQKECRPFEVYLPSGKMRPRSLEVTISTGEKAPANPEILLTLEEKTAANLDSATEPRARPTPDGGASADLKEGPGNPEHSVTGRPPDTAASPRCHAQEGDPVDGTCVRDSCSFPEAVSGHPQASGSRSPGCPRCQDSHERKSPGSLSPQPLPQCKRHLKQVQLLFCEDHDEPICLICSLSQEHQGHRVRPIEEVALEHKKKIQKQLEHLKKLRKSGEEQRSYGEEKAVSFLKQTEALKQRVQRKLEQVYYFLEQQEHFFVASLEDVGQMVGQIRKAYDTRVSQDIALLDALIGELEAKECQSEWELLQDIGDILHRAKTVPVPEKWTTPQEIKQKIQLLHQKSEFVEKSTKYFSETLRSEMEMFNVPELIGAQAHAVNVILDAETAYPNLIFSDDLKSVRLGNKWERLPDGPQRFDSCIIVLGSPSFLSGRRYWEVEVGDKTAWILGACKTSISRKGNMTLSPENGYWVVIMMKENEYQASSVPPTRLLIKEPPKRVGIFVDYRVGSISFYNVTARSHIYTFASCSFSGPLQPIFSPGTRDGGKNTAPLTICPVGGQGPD
The experiment is described as follows: co-IP; Lenti-X 293T cells expressing FLAG-pyrin and V5-ASC with V5-tagged wild-type or A230T PSTPIP1, no β2MG overexpression; anti-FLAG Ab agarose beads.

Experiment [2] addresses T1, FLAG-tagged full-length pyrin (human). The experiment in a line: co-IP; competition in cells: Lenti-X 293T cells expressing FLAG-pyrin (wild type or M694V) and V5-β2MG with or without V5-p20; anti-FLAG Ab agarose.
Experiment [3] concerns the target T2, FLAG-tagged pyrin E10-2 (aa 660–727) (human) (UniProt O15553).
T2 sequence: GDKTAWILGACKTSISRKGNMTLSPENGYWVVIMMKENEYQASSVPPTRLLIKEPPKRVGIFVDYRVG
The experiment is described as follows: co-IP; Lenti-X 293T cells co-transfected; lysis buffer 20 mM Tris–HCl pH 6.0, 120 mM NaCl, 5% glycerol, 0.5% Triton X-100; anti-FLAG Ab agarose beads, 1 h at 4 °C; blot for V5; some samples with or without co-expressed V5-β2MG.

Experiment [4] concerns the target T3, FLAG-tagged full-length pyrin with M694V mutation (human) (UniProt O15553).
T3 sequence: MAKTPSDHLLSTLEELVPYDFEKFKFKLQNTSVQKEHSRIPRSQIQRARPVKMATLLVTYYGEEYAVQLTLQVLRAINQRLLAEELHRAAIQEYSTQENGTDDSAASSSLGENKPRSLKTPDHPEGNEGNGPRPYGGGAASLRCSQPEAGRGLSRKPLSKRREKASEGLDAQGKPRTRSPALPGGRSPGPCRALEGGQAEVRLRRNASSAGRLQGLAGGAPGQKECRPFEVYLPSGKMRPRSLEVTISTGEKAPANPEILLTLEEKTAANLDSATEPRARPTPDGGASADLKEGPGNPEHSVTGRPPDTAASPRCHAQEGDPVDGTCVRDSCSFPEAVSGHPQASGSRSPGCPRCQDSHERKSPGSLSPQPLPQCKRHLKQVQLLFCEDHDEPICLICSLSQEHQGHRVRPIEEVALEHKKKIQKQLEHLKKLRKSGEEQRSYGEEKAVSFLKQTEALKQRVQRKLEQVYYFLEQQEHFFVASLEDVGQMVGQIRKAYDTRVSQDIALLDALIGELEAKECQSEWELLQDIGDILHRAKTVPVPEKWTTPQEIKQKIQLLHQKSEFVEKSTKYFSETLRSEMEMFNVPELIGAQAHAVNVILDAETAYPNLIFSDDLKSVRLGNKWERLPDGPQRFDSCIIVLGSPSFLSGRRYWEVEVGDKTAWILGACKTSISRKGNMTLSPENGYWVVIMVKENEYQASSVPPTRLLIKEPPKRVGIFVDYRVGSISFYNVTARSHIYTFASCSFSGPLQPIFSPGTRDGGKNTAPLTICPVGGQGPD
The experiment is described as follows: co-IP; competition in cells: Lenti-X 293T cells expressing FLAG-pyrin (wild type or M694V) and V5-β2MG with or without V5-p20; anti-FLAG Ab agarose.

For experiment [5], the target named is T1, FLAG-tagged full-length pyrin (human). The experiment is described as follows: co-IP; Lenti-X 293T cells; hypotonic lysis buffer (20 mM Tris–HCl pH 6.0, 10 mM KCl, 1.5 mM MgCl2, 5% glycerol), cytoplasmic proteins only, NaCl added to 120 mM; FLAG-pyrin constructs precipitated.
For experiment [6] the target is unchanged. The experiment is described as follows: co-IP; Lenti-X 293T cells co-transfected; lysis buffer 20 mM Tris–HCl pH 6.0, 120 mM NaCl, 5% glycerol, 0.5% Triton X-100; anti-FLAG Ab agarose beads, 1 h at 4 °C; blot for V5; some samples with or without co-expressed V5-β2MG.
Experiment [7] concerns the target T3, FLAG-tagged full-length pyrin with M694V mutation (human). The description is as above.
The target of experiment [8] is T4, FLAG-tagged pyrin E10-1 (aa 598–659) (human) (UniProt O15553).
T4 sequence: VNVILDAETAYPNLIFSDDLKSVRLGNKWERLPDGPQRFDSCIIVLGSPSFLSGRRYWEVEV
The description is as above.

Experiment [9] concerns the target T5, FLAG-tagged pyrin E10-2 fragment with M694V mutation (human) (UniProt O15553).
T5 sequence: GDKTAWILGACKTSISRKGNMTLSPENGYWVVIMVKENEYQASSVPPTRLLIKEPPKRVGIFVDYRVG
Described as above.

For experiment [10], the target named is T6, FLAG-tagged pyrin E10-3 (aa 728–781) (human) (UniProt O15553).
T6 sequence: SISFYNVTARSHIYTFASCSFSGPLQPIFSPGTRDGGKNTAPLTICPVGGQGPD
Described as above.

The target of experiment [11] is T7, endogenous pyrin in human neutrophils (human (endogenous in neutrophils)) (UniProt O15553).
T7 sequence: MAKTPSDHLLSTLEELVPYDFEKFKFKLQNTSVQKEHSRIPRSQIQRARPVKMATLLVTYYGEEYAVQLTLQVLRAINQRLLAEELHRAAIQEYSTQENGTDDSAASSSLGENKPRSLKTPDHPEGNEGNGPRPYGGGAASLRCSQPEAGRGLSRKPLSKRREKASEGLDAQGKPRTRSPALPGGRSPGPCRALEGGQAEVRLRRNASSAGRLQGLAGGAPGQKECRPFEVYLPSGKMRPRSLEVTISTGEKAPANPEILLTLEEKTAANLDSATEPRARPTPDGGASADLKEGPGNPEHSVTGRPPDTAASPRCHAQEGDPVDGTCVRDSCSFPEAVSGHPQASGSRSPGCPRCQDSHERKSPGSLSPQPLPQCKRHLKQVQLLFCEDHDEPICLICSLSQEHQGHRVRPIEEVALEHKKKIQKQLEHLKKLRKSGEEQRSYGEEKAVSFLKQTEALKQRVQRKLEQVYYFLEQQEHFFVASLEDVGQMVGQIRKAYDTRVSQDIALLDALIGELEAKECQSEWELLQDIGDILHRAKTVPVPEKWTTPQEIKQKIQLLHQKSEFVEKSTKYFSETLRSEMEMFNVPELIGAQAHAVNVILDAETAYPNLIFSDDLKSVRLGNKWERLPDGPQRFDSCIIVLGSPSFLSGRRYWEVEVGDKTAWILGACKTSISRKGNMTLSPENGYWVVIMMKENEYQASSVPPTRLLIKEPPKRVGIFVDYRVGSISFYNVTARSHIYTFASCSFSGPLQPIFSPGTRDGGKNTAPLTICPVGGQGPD
The experiment is described as follows: proximity ligation; Duolink kit; human neutrophils stimulated with LPS and MSU crystals; anti-pyrin mouse monoclonal Ab with PLUS probe, anti-β2MG mouse monoclonal Ab with MINUS probe.

Experiment [12] deals with V5-tagged β2-microglobulin (human) (UniProt P61769). The experiment is described as follows: co-IP; reciprocal: Lenti-X 293T cells co-transfected; same lysis buffer; anti-V5 Ab magnet beads, 1 h at 4 °C; blot for FLAG.

For “V5-tagged PSTPIP1 A230T (from UniProt O43586 1-416)”, the binding entry in experiment [1] is given as “binds”.

In the case of “V5-tagged caspase-1 p20 subunit (from UniProt P29466 120-297) (domain or fragment)”, the binding entry in [2] and in [3] was “binds” each time.

Take “V5-tagged β2-microglobulin (from UniProt P61769 21-119)”: the binding entry in experiment [2], in experiment [4], in experiment [5], in [6], in experiment [7] and in experiment [8] was “binds” in each case. In addition, the binding entry in experiment [3], in [9] and in experiment [10] was “binds” each time.

In the case of “endogenous β2-microglobulin in human neutrophils (from UniProt P61769 21-119)”, the binding result in experiment [11] was “binds”.

“V5-tagged wild-type proline–serine–threonine phosphatase interacting protein 1 (PSTPIP1) (from UniProt O43586 1-416)”: the binding result in experiment [6] and in experiment [7] was “binds” in each case.

B1: FLAG-tagged full-length pyrin (protein, UniProt O15553 1-781)
chain: MAKTPSDHLLSTLEELVPYDFEKFKFKLQNTSVQKEHSRIPRSQIQRARPVKMATLLVTYYGEEYAVQLTLQVLRAINQRLLAEELHRAAIQEYSTQENGTDDSAASSSLGENKPRSLKTPDHPEGNEGNGPRPYGGGAASLRCSQPEAGRGLSRKPLSKRREKASEGLDAQGKPRTRSPALPGGRSPGPCRALEGGQAEVRLRRNASSAGRLQGLAGGAPGQKECRPFEVYLPSGKMRPRSLEVTISTGEKAPANPEILLTLEEKTAANLDSATEPRARPTPDGGASADLKEGPGNPEHSVTGRPPDTAASPRCHAQEGDPVDGTCVRDSCSFPEAVSGHPQASGSRSPGCPRCQDSHERKSPGSLSPQPLPQCKRHLKQVQLLFCEDHDEPICLICSLSQEHQGHRVRPIEEVALEHKKKIQKQLEHLKKLRKSGEEQRSYGEEKAVSFLKQTEALKQRVQRKLEQVYYFLEQQEHFFVASLEDVGQMVGQIRKAYDTRVSQDIALLDALIGELEAKECQSEWELLQDIGDILHRAKTVPVPEKWTTPQEIKQKIQLLHQKSEFVEKSTKYFSETLRSEMEMFNVPELIGAQAHAVNVILDAETAYPNLIFSDDLKSVRLGNKWERLPDGPQRFDSCIIVLGSPSFLSGRRYWEVEVGDKTAWILGACKTSISRKGNMTLSPENGYWVVIMMKENEYQASSVPPTRLLIKEPPKRVGIFVDYRVGSISFYNVTARSHIYTFASCSFSGPLQPIFSPGTRDGGKNTAPLTICPVGGQGPD
For B1, the binding entry in [12] is on record as “binds”.

Values taken from paper PMC8654936.
